No constants are given. Whether binding was seen depends on the method and setting. Some entries that bind do so weakly or less than the wild type.
Columns and labels:
[1] = biological target: CSD, the cold-shock domain of YB-1 (UniProt Q28618); test: cross-linking; protein alone, in the absence of RNA; 5 μg in 10 μl of 20 mM Hepes-NaOH pH 7.6, 50 mM NaCl, 0.5 mM PMSF, 0.1% glutaraldehyde, 10 min at room temperature; 12% SDS-PAGE, Coomassie (Figure S4A); both purified
[2] = biological target: CSD, the cold-shock domain of YB-1 (UniProt Q28618); test: atomic force microscopy; protein multimerization in the absence of RNA, imaged by AFM (Figure S4B); both purified
YB-1, full length [3] = biological target: YB-1, full length (UniProt Q28618); test: cross-linking; YB-1 cross-linked on supercoiled DNA; multimers resistant to DNAse once formed (Figure S2B); both purified
YB-1, full length [4] = biological target: YB-1, full length (UniProt Q28618); test: atomic force microscopy; YB-1 constructs (100-500 nM) with supercoiled pBR322 DNA (2 nM) on mica; 20 mM Hepes pH 7.6, 50 mM KCl, 4 mM MgCl2; multimers seen on the DNA, at DNA crosses; both purified
YB-1, full length [5] = biological target: YB-1, full length (UniProt Q28618); test: cross-linking; YB-1 cross-linked in the presence of mRNA, which serves as a scaffold (Figure S2B); both purified
[6] = biological target: YB-1-tr, a truncated form comprising the first 219 amino acid residues (UniProt Q28618); test: atomic force microscopy; YB-1 constructs (100-500 nM) with supercoiled pBR322 DNA (2 nM) on mica; 20 mM Hepes pH 7.6, 50 mM KCl, 4 mM MgCl2; multimers seen on the DNA, at DNA crosses; both purified

By UniProt entry, the sequences of proteins in these tests, tags left out. Where a name states a change or a piece, a line headed by the entry shows the natural chain unless it says otherwise.
UniProt Q28618: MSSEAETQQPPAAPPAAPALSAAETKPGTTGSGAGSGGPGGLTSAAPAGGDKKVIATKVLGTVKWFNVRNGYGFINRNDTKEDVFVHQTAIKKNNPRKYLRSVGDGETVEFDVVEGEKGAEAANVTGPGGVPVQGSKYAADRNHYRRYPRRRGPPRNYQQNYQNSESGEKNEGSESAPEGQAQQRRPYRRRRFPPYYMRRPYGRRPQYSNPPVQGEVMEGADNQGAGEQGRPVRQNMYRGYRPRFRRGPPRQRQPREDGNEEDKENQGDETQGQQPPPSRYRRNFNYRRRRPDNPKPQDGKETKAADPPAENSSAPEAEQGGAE

CSD, the cold-shock domain of YB-1 (from UniProt Q28618 58-128) (domain or fragment)
binding [1]: binds | binding [2]: binds

YB-1, full length (from UniProt Q28618 1-324)
binding (YB-1, full length [3]): binds | binding (YB-1, full length [4]): binds | binding (YB-1, full length [5]): binds

YB-1-tr, a truncated form comprising the first 219 amino acid residues (from UniProt Q28618 1-219) (domain or fragment)
binding [6]: binds
